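Genome-wide siRNA knockdown in TC32 Ewing sarcoma cells, comparing luciferase light from an NR0B1-promoter reporter with a CMV-promoter reporter 48 hours after transfection.
Each siRNA was applied at 20 nM.
A z-score of the log NR0B1-over-CMV signal, less the median of siRNAs with the same seed; more negative means a stronger specific loss of the NR0B1 reporter.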

The strongest results of the screen are mostly left out here.
Sequences are the guide (antisense) strand, without overhang.

siRNA	gene	seed-corrected z-score
UUAUAAAUAAACAUCCAGU	ATP6V0C	0.1466
UGCUUUACCACUCGUACUC	EPT1	0.4506
UCUCUCUUUAUUCCAGCUG	LOC439994	-0.4534
AAAUUAUCCACUGAAAUGU	GNG4	1.293
UAAAGAUCCCAUGCGUAGC	ASXL1	-0.1028
UUGGUAUGCAGGUAACUGA	AEBP1	0.4843
UAGCCUCUUAAUGGAGUGG	ATP6V1F	-0.3492
UCCGGAAAAAGUGGGUCUC	NKX6-1	0.4727
UCAGAGUUGAGCCAAACCU	P2RX2	-0.4569
UGCUGAACUAAUACGUUUG	KIF20B	-0.7375
UCCUUUCUGAGGGUAGGUC	LOC729879	-0.3809
UUGGAUAAAUCAGAAGAGG	YIPF4	0.7665
UUUCAUACAGGGAGAGGCC	GON4L	-0.4698
AUAAAUACCCAGCUAGACC	FAM3B	0.3283
UUCUUGACAAUGACGGUGC	CLCNKB	-1.144
AGAUCUUUCACGAAGAUUU	PRSS54	0.9949
AGAUGAACACGGGUUCUGU	SCAMP4	0.7063
UACGAAUGAACUGAUUAGG	ANKAR	0.3904
AUGAUUGUCAGAAACAUGA	CLEC2D	0.6947
UUCUUCUUCACUCGAAGGG	STYXL1	-0.01751
UAUCGGUCAUGCUGAAUUC	GABPA	-0.4155
UAUUGGUCCACGGACGUGA	FAM129B	0.5963
UGUUCCAAGAUCAAGACCU	C2orf66	-0.4133
AUGUGUUUGGGCCUUUUCC	LINC00202-1	0.2653
UCAGGUGCUCAAGAAAGCU	LRRC32	-0.9371
UUCGGUAAGUCUUUAAGGC	USPL1	-0.05619
AAAGGCAAAGUCCCUUUUC	HNRNPA1P60	1.053
UUCUUGAAGAGGGUGAACU	ZFYVE19	0.6102
UUCUGAUUUCCCGCAGCGC	H3.X	-0.1389
UAACGUUUUUCCCUCACUU	SPRN	-0.8574
UUCUUGUAGAGCGACAGCU	PSTPIP1	0.4424
UAAUCGCCUCCUUAUGUGC	WDR33	0.1122
UACGGUAGAAUCUCACCAC	IQGAP3	-0.3711
UUAGGCUCCUCAAUCACCG	ASCC2	-0.3943
UUAGCAUUCACAGACGACA	ALDOA	0.1169
UAGUCGUAAGGGUUGGUCG	MYH3	-0.1026
UUGUAAAUAUCCGUUUUUC	PITPNB	-0.1622
AGUGUCACCAUCACGAUGC	DPEP3	0.002953
UACUGGGUCACGAUCUGGG	GIPR	-0.115
AUAUAGGUAGGAAACAUCC	FOLR1	-1.031
UUUCUUACACCCAUCAAUC	SMS	0.007535
AAAGGAUUUCUGCAACUCC	POLH	0.1374
UACAUGAUAAGUAGAAGGC	BAALC	-0.3252
UAAGUUCAUCAUAACCUCC	ZNF723P	0.8372
AAAGGUAAAACAUGGGUUA	ADH1A	-0.5263
UCAUUGUCUGUUUAUAUAC	DNAJC8	-0.5731
UGACCAUUAAGCCUUGCUC	CNGA3	0.05224
UCUUCAUACACCGUGUCUC	MYO5B	-0.1666
AACUACACUAGAAUGCACC	IL25	-0.2421
UUUGCUUUGGGUUUCACUG	H1F0	-0.4063
UGAUCUUCUAGAAACUUAG	ADPRM	-0.9115
UUCCGUUCCAGGCUCAUCG	ACSS1	-0.9763
UGACUGCUUACACUUGAGG	ARRDC3	-1.476
AUACUAGUAGCCUCAGUAG	ZSWIM5	-0.3516
UUUGUUCCCAUUUGCAUGG	GPBP1L1	3.298
UAUCAUCUCUGCACAAGCC	SERPINI2	-0.634
AGUUGUCUGAGAGAAAGCC	SSTR1	-1.329
UAUUUUCACAGGUAGAAAG	STX17-AS1	-0.5868

Data taken from PubChem BioAssay AID1159506, deposited by NCATS (2015).